The other results are listed elsewhere or left out.
test: oleate-induced lipid droplet accumulation in AML12 cells – imaging, high-throughput imaging, BODIPY stain, primary screen (AID 1656); settings: AML12 mouse hepatocytes, oleate lipid droplets, measured here: cell count, cytotoxicity flag, at 6.5 µM;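 also: cells counted across two imaged fields per well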

Row | SMILES | cell count [cells]
1 | CCc1ccc(OP(C)(=O)N2CCN(c3ccc([N+](=O)[O-])cc3)CC2)cc1 (stereo unspecified) | 715
2 | Cc1cc(C)cc(OP(C)(=O)Nc2ccc(SC(F)(F)F)cc2)c1 (stereo unspecified) | 688
3 | O=C(Nc1ccncc1[N+](=O)[O-])c1ccc([N+](=O)[O-])cc1[N+](=O)[O-] | 832
4 | COc1ccc(N/C(=N/P(=O)(N2CCOCC2)N2CCOCC2)N2CCOCC2)cc1 | 704
5 | Cc1c2c(nc3ccccc13)SC(C(Cl)Cl)C2 (stereo unspecified) | 572
6 | Cc1cc(=O)[nH]c(N[N+](=O)[O-])n1 | 648
7 | CCN(CC)CCCOC(=O)C(O)(c1ccccc1)c1ccccc1 | 733
8 | COc1ccc2nc(NP(=O)(c3ccccc3)c3ccccc3)sc2c1 | 709
9 | COc1cc(I)ccc1[As](=O)(O)O | 647
10 | CCOC(=O)c1ccc(NP(C)(=O)Oc2ccccc2)cc1 (stereo unspecified) | 732
11 | ClCCSc1nnc(-c2cccnc2)o1 | 745
12 | Cc1ccc(NP(C)(=O)Oc2ccccc2)c(C)c1 (stereo unspecified) | 772
13 | CC(C)c1ccc(OP(=O)(Nc2ccccn2)Oc2ccccc2F)cc1 (stereo unspecified) | 739
14 | COc1ccccc1OP(C)(=O)Nc1cc(Cl)ccc1C (stereo unspecified) | 785
15 | CC(C)NC(=O)NP(=O)(Oc1ccccc1)Oc1ccccc1 | 703
16 | COc1ccc(OP(C)(=O)Nc2cccc(F)c2)cc1 (stereo unspecified) | 751
17 | O=[N+]([O-])c1cc([N+](=O)[O-])c(-c2ccn[nH]2)s1 | 701
18 | Cc1cc(C)cc(OP(C)(N)=O)c1 (stereo unspecified) | 681
19 | O=[As](O)(c1ccc(O)cc1)c1ccccc1O | 707
20 | C[As](=O)(O)c1cccc(C(=O)O)c1 | 745
21 | Cc1ccc(OP(=O)(Nc2ccc([N+](=O)[O-])cn2)Oc2ccc(C)cc2)cc1 | 743
22 | CC(C)(C)c1ccc(OP(C)(=O)Nc2ccc(SC(F)(F)F)cc2)cc1 (stereo unspecified) | 667
23 | Cc1cccc(C)c1OP(C)(N)=O (stereo unspecified) | 727
24 | O=[N+]([O-])c1ccc2c(c1)C=Nc1ccccc1O2 | 714
25 | Cc1ccc2nc3c(c(C)c2c1)CC(C(Cl)Cl)S3 (stereo unspecified) | 652
26 | NC(=O)Nc1ccc([As](=O)(O)O)cc1 | 691

Row | SMILES | cell count [cells]
27 | CN(C(=O)Cc1ccccc1)[C@@H]1CC[C@]2(CCCO2)C[C@H]1N1CCCC1 | 730
28 | O=[N+]([O-])c1ccc2c(c1)nnn2O | 751
29 | CC1=NCCc2c1[nH]c1ccccc21.O=[N+]([O-])c1cc([N+](=O)[O-])c(O)c([N+](=O)[O-])c1 | 523
30 | CCOP1(=S)c2c(C)nn(CCC#N)c2N=C(c2ccccc2F)N1C (stereo unspecified) | 697
31 | O=C(O)c1cccc(Nc2c([N+](=O)[O-])cc([N+](=O)[O-])cc2[N+](=O)[O-])c1 | 690
32 | O=P(Nc1nccs1)(Oc1ccccc1)Oc1ccccc1 | 780
33 | O=P(Nc1nccs1)(c1ccccc1)c1nc2ccccc2s1 (stereo unspecified) | 617
34 | CS(=O)(=O)c1cc([N+](=O)[O-])c2no[n+]([O-])c2c1 | 703
35 | Nc1ccccc1[As](=O)(O)c1ccccc1 | 653
36 | O=C(O)COc1ccc([As](=O)(O)O)cc1[N+](=O)[O-] | 826
37 | Cc1cc(C)cc(OP(C)(=O)Nc2ccccn2)c1 (stereo unspecified) | 813
38 | CP(=O)(Nc1cccc(Br)c1)Oc1ccccc1 (stereo unspecified) | 714
39 | Cc1ccc(NCCc2c([N+](=O)[O-])cc([N+](=O)[O-])cc2[N+](=O)[O-])cc1 | 543
40 | Nc1cccc2c([As](=O)(O)O)cccc12 | 825
41 | Cc1ccc(C)c(NP(C)(=O)Oc2ccccc2)c1 (stereo unspecified) | 751
42 | CCCOP(=S)(Nc1nc(N)cc(=O)[nH]1)OCCC | 615
43 | CCOP(=O)(Nc1cccc2ccccc12)OCC | 750
44 | O=C(OC1CN2CCC1CC2)c1ccc(Cl)cc1 (stereo unspecified) | 716
45 | O=[As](O)(O)c1cccnc1 | 605
46 | COc1cc(C(=O)NCC2(N3CCOCC3)CCCCC2)cc(Cl)c1OC(C)C | 652
47 | COc1ccccc1OP(C)(=O)Nc1cccc(Br)c1 (stereo unspecified) | 685
48 | CS(=O)(=O)c1ccc(Cl)c(NC(=O)COC(=O)C(O)(c2ccccc2)c2ccccc2)c1 | 712
49 | Cc1cccc(OCC(=O)OC2CN3CCC2CC3)c1 (stereo unspecified) | 714
50 | O=[As](O)(c1cccc(O)c1)c1cccc(O)c1 | 728
51 | Cc1cc(C)cc(OP(C)(=O)Nc2ccc(C)cc2C)c1 (stereo unspecified) | 769
52 | CCOC(=O)c1ccc(NP(C)(=O)Oc2cc(C)cc(C)c2)cc1 (stereo unspecified) | 670

Row | SMILES | cell count [cells]
53 | CC(C)/C=N\N=C(\N)N[N+](=O)[O-] | 689
54 | CN(C(=O)Cc1ccc(Cl)c(Cl)c1)[C@@H]1CCCC[C@H]1N1CCCC1 | 743
55 | O=[As](O)(c1ccccc1Br)c1ccccc1Br | 736
56 | O=P1(Nc2ccccn2)COc2ccccc2OC1 | 711
57 | CCC1=CC2Cc3nc4ccc(Cl)cc4c(N)c3C(C1)C2 (stereo unspecified) | 716
58 | O=[N+]([O-])c1cc([N+](=O)[O-])c(-n2nnc3ccccc32)c([N+](=O)[O-])c1 | 686
59 | CCOP(=O)(NC(=NC(C)c1ccccc1)NC(C)c1ccccc1)OCC (stereo unspecified) | 825
60 | CCOP(=O)(Nc1ccc(C)cn1)OCC | 681
61 | CC(C)(C)C(=O)NC(Sc1ncccn1)C(Cl)(Cl)Cl (stereo unspecified) | 738
62 | CN1CCCCC1COC(=O)C1(O)c2ccccc2CCc2ccccc21 (stereo unspecified) | 662
63 | O=P1(Nc2ncccn2)COc2ccccc2OC1 | 752
64 | CCCOc1ccc(NP(C)(=O)Oc2ccc(Cl)cc2)cc1 (stereo unspecified) | 682
65 | CP(=O)(Nc1ccc(SC(F)(F)F)cc1)Oc1ccccc1 (stereo unspecified) | 744
66 | Nc1cccc([As](=O)(O)c2ccccc2)c1 | 713
67 | Cc1ccc(OCC(=O)OC2CN3CCC2CC3)cc1 (stereo unspecified) | 655
68 | O=[As](O)(c1cccs1)c1cccs1 | 687
69 | O=P1(Nc2ccc(Br)cn2)COc2ccccc2OC1 | 769
70 | Cc1nn(-c2ccccc2)c2c1P(=O)(N1CCOCC1)N(C)C(c1ccccc1)=N2 (stereo unspecified) | 708
71 | CC1CCC(C(C)C)C(OP(=O)(Nc2ccccn2)c2ccccc2)C1 (stereo unspecified) | 690
72 | COc1cc(C2NCCC3(OCCO3)C2(C)C)cc(OC)c1OC.O=[N+]([O-])c1cc([N+](=O)[O-])c(O)c([N+](=O)[O-])c1 (stereo unspecified) | 617
73 | CN(C)C1(CNC(=O)c2ccc(S(C)(=O)=O)cc2)CCCCC1 | 733
74 | O=[N+]([O-])c1cc([N+](=O)[O-])c(Nc2nnnn2CCO)c([N+](=O)[O-])c1 | 717
75 | CCOC(=O)C(CC)C1=NC(C)(C)Cc2ccccc21.O=[N+]([O-])c1cc([N+](=O)[O-])c(O)c([N+](=O)[O-])c1 (stereo unspecified) | 747
76 | O=C(/C=C/c1ccccc1)OC1CN2CCC1CC2 (stereo unspecified) | 690

Reference: PubChem BioAssay AID1656 (Sanford-Burnham Center for Chemical Genomics, 2009)
